The whole screen tested about 320,000 compounds, of which about 22,000 (6.9%) were called active. The inconclusive results got no clear call from the source; some entries with a clear call stand among them for comparison. Calls follow the shape of the dose curve; as a rule, active = well fitted inhibition curve with a large enough effect; inconclusive = small, poorly fitted or top-dose-only effect, or another doubt; inactive = no such curve, though single readings can be large or run the other way. A potency beside an inconclusive call is a rough fit, not a confirmed value.
experiment: Primary qHTS for delayed death inhibitors of the malarial parasite plastid, 96 hour incubation; conditions: P. falciparum luciferase reporter growth; series mostly up to 28.7 µM; activity change, negative = inhibition: at the top concentration
In short: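 Parasite growth measured via integrated firefly luciferase reporter in P. falciparum. Infected erythrocytes at 2% hematocrit, 0.05% parasitemia final were treated 96 hours at 37 C under 5% CO2, and luminescence was read.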
% is scaled to controls: 0 for no effect and ±100 for the full control effect; potency is read from the fitted curve at half-maximal effect.

Row | SMILES | activity change, negative = inhibition | Potency
1 | CCOc1ccc2nc(Cl)c(CN(C(=O)c3cnccn3)C3CCCC3)cc2c1 | inactive: 13.8% | 
2 | O=C(CSc1nnc(N2CCCC2)n1-c1ccccc1Cl)N1CCN(c2ccccn2)CC1 |  | inconclusive: 18.5 µM [inhibitor, single point]
3 | COc1cccc(OCc2cc(C(=O)N(Cc3nccn3C)C(C)C)no2)c1 | inactive: 18.8% | 
4 | Cc1ccccc1C(=O)N1CCN(c2ccc(NC(=O)CSc3ccc(Cl)cc3)cc2)CC1 |  | inconclusive: 9.28 µM [inhibitor, single point]
5 | CC(=O)c1cccc(NC(=O)COC(=O)c2cccs2)c1 | inactive: -16.6% | 
6 | COC(=O)c1nc2n(n1)C(c1ccc(OC)c(OC)c1OC)C1=C(CCCC1=O)N2 (stereo unspecified) | inactive: 8.03% | 
7 | O=[N+]([O-])c1cccc(/C=C/c2ccc3cccc(O)c3n2)c1 |  | inconclusive: 5.22 µM [inhibitor, partial curve]
8 | Cc1cc(=O)oc2cc(OCC(=O)OCC(=O)NC3CC3)ccc12 |  | inconclusive: 5.86 µM [inhibitor, partial curve, poor fit]
9 | OCCN1CCN(Cc2cccc(Oc3ccc(Cl)cc3)c2)CC1 | inactive: -9.89% | 
10 | CCC(C)C1C(C#N)=C(N)OC2=C1C(=O)CC(C)(C)C2 (stereo unspecified) |  | inconclusive: 10.4 µM [inhibitor, partial curve, poor fit]
11 | O=C(NCC(=O)N1CCN(c2ccccc2O)CC1)c1ccc2c(c1)OCO2 | inactive: 93.7% | 
12 | COc1ccc(CCn2ccc(O)c(Cc3ccc(Cl)cc3Cl)c2=O)cc1OC |  | inconclusive: 13.1 µM [inhibitor, partial curve, poor fit]
13 | Cc1ccc(N2CC(C(=O)Nc3ccc4c(c3)OCCO4)CC2=O)cc1 (stereo unspecified) |  | inconclusive: 13.1 µM [inhibitor, single point]
14 | CN(c1ccc(OCC(=O)N2CCOCC2)cc1)S(=O)(=O)c1ccc(Cl)cc1 |  | inconclusive: 2.62 µM [inhibitor, single point]
15 | CCOC(=O)/C=c1\s/c(=C\c2ccccc2C)c(=O)n1CC(=O)NCc1ccc2c(c1)OCO2 |  | inconclusive: 11.7 µM [inhibitor, partial curve, poor fit]
16 | Cc1cccc(OCc2nnc(SCCC(=O)O)n2-c2ccccc2)c1 |  | inconclusive: 18.5 µM [inhibitor, single point]
17 | O=C(CSc1ccccn1)N/N=C/C=C/c1ccccc1 | inactive: 173% | 
18 | NC(=O)NC(=O)C(c1ccccc1)N1CCN(S(=O)(=O)c2ccc(Br)s2)CC1 (stereo unspecified) |  | inconclusive: 9.28 µM [inhibitor, partial curve, poor fit]
19 | CCCn1c(SCC(=O)N2CCN(S(=O)(=O)c3ccc(Cl)cc3)CC2)n[nH]c1=O |  | inconclusive: 9.28 µM [inhibitor, single point]
20 | COc1cc2c(cc1OC)C(c1cc(Br)ccc1F)N(C(=O)CCl)CC2 (stereo unspecified) |  | inconclusive: 2.62 µM [inhibitor, full curve]
21 | CC(C)CCCN1C(Nc2ccccc2)=NC[C@@H]1Cc1ccccc1 |  | inconclusive: 1.85 µM [inhibitor, partial curve, poor fit]
22 | Cc1cc(Oc2nc3c(C)cccn3c(=O)c2/C=C(\C#N)S(=O)(=O)c2ccc(Cl)cc2)ccc1Cl |  | inconclusive: 10.4 µM [inhibitor, single point]
23 | COc1cccc(-c2cccc(NC(=O)C3CCN(C4CCOCC4)CC3)c2)c1 | inactive: -24.7% | 
24 | CCCOc1ccc(NC(=O)C2CC(=O)N/C(=N/N=C(\C)CCc3ccc4c(c3)OCO4)S2)cc1 (stereo unspecified) |  | inconclusive: 1.47 µM [inhibitor, partial curve, poor fit]

Row | SMILES | activity change, negative = inhibition | Potency
25 | Cc1cccc(Cn2cc(SCC(=O)Nc3nccs3)c3ccccc32)c1 |  | inconclusive: 18.5 µM [inhibitor, single point]
26 | CCOC(=O)c1c(NC(=O)c2cc3n(n2)C(C(F)(F)F)CC(c2cccs2)N3)sc(C)c1C (stereo unspecified) |  | inconclusive: 18.5 µM [inhibitor, single point]
27 | CC1CCc2nc3ccc(S(=O)(=O)N4CCC(C(=O)O)CC4)cc3c(C(=O)O)c2C1 (stereo unspecified) |  | inconclusive: 13.1 µM [inhibitor, partial curve]
28 | Cc1cc(C)c(C#N)c(Nc2ccccc2C)n1 |  | inconclusive: 18.5 µM [inhibitor, single point]
29 | Cc1cccc(NC(=O)c2ccc(C)c(S(=O)(=O)N3CCCCC3)c2)n1 |  | inconclusive: 18.5 µM [inhibitor, single point]
30 | CC(C)c1nnc(NC(=O)C2CCN(S(=O)(=O)c3ccc(-n4cnnn4)cc3)CC2)s1 |  | inconclusive: 1.47 µM [inhibitor, full curve, poor fit]
31 | COc1ccc(OC)c(NC(=O)Cn2cc(C#N)c3cc(Br)ccc32)c1 | inactive: -2.75% | 
32 | O=C(NCc1ccco1)/C(=C/c1ccccc1F)NC(=O)c1ccccc1 | inactive: 15.1% | 
33 | CCOc1ccc(NC(=O)c2ccc(OC)cc2)cc1 |  | inconclusive: 18.5 µM [inhibitor, single point]
34 | O=S(=O)(N/N=C/c1ccccc1OCc1ccc(Cl)cc1)c1ccccc1 |  | inconclusive: 0.0033 µM [inhibitor, full curve, poor fit]
35 | CN(C)CCn1c2c(c(SCC(=O)Nc3cccc(C(F)(F)F)c3)nc1=O)CCCC2 |  | inconclusive: 16.5 µM [inhibitor, single point]
36 | CCN(CC)CCNCc1ccc(-c2ccc(Cl)cc2)o1 |  | active: 11.7 µM
37 | Cn1cc(Br)c(NC(=O)/C=C/C(=O)O)n1 | inactive: 21.6% | 
38 | Oc1ccc(-c2cn3c(n2)SCC3)cc1O |  | inconclusive: 18.5 µM [inhibitor, single point]
39 | CCN1CC(c2ccccc2)C(c2ccc(Cl)cc2)=N1 (stereo unspecified) | inactive: -14.3% | 
40 | COc1ccccc1N(CC(=O)NCc1ccccc1)C(=O)CCC(=O)Nc1ccccn1 |  | inconclusive: 18.5 µM [inhibitor, partial curve, poor fit]
41 | O=C(O)C1CCN(S(=O)(=O)c2cccc3cccnc23)CC1 | inactive: -0.797% | 
42 | CCOC(=O)c1ccc(N2N=C(C)/C(=C/C=C/c3ccco3)C2=O)cc1 |  | active: 13.1 µM
43 | COc1ccc2c(c1)cc1n2CCN=C1NN |  | inconclusive: 0.0465 µM [inhibitor, full curve, poor fit]
44 | CC(C)CCC(C)NC(=O)C1CCN(S(=O)(=O)/C=C/c2ccccc2)CC1 (stereo unspecified) | inactive: 0.635% | 
45 | COc1ccc(C(=O)c2c[nH]c3ccccc23)cc1 |  | inconclusive: 9.28 µM [inhibitor, single point]
46 | O=C(NCCc1c[nH]c2ccccc12)C(=O)NCC1OCCCN1S(=O)(=O)c1ccc(F)cc1 (stereo unspecified) |  | inconclusive: 11.7 µM [inhibitor, single point]
47 | CCOc1cc(CNc2ccc(S(N)(=O)=O)cc2)ccc1OCC(=O)NC(C)(C)C |  | inconclusive: 2.08 µM [inhibitor, partial curve, poor fit]
48 | O=C1C=C(c2cccc3c2sc2ccccc23)C[C@@H](c2ccc(F)cc2)C1 | inactive: 0% | 

Row | SMILES | activity change, negative = inhibition | Potency
49 | CCOC(=O)N/N=C/C=C/c1ccccc1 |  | inconclusive: 13.1 µM [inhibitor, single point]
50 | CC1CCCCN1CCCNc1ccc(C(CC(N)=O)NC(=O)Cc2cccc3ccccc23)cc1[N+](=O)[O-] (stereo unspecified) |  | active: 2.08 µM
51 | CC(=O)c1ccc(NC(=S)Nc2cccc3ccccc23)cc1 | inactive: 0% | 
52 | CCOC(=O)C1CCCCN1Cc1cn[nH]c1-c1ccc(F)cc1F (stereo unspecified) |  | inconclusive: 5.86 µM [inhibitor, partial curve, poor fit]
53 | CCOC(=O)c1[nH]c2ccc(Br)cc2c1NC(=O)CCN1CCN(C(=O)OCC)CC1 | inactive: 8.66% | 
54 | CCOC(=O)C1(CCCc2ccccc2)CCN(C(=O)COC)CC1 | inactive: -13.4% | 
55 | O=C1N=C(N2CCOCC2)S/C1=C/c1cc2c(cc1[N+](=O)[O-])OCO2 |  | inconclusive: 14.7 µM [inhibitor, partial curve, poor fit]
56 | CCc1ccc(NC(=O)CSc2nnc(-c3ccccn3)n2C)cc1 |  | inconclusive: 10.4 µM [inhibitor, partial curve, poor fit]
57 | CC1CCN(Cc2cc(=O)oc3ccc(C(C)C)cc23)CC1 |  | active: 1.85 µM
58 | N#CCO/N=C/C(=O)Nc1ccc(F)cc1F | inactive: -15.4% | 
59 | COc1ccc(-c2nn(-c3ccccc3)cc2C(=O)Nc2nccs2)cc1OC | inactive: -1.92% | 
60 | COc1ccc(NC(=O)NC(c2ccccc2)c2ccccc2)c(OC)c1 | inactive: -0.42% | 
61 | COc1ccccc1NC(=O)Cn1ncc2c1-c1ccccc1OC2 |  | inconclusive: 9.28 µM [inhibitor, single point]
62 | Cc1cc(C(=O)OCC(=O)N2CC(=O)Nc3ccccc32)c(C)n1-c1ccc(F)cc1 |  | active: 2.62 µM
63 | c1ccc(CSc2ncnc3c2sc2nc(N4CCOCC4)c4c(c23)CCCC4)cc1 |  | inconclusive: 18.5 µM [inhibitor, single point]
64 | O=C(NC1CC1)C1=C[C@@H](C2CC2)C[C@@H](OCc2ccc(CO)cc2)O1 | inactive: 36.8% | 
65 | O=[N+]([O-])c1ccc(NCCNCCOc2nonc2-c2ccccc2)c([N+](=O)[O-])c1 |  | inconclusive: 18.5 µM [inhibitor, single point]
66 | COc1cccc(NC(=S)Nc2cccnc2)c1 | inactive: -10.3% | 
67 | Cc1cc(-c2csc3nc[nH]c(=S)c23)cc(C)c1C |  | inconclusive: 18.5 µM [inhibitor, single point]
68 | COc1ccc(-c2cc(C(=O)Nc3cc(C)nn3-c3ccccc3)no2)cc1OC | inactive: -7.95% | 
69 | CCN(Cc1nc(-c2cccc(C)c2)no1)C(=O)c1ccco1 | inactive: 6.12% | 
70 | O=C(CCCn1cnc([N+](=O)[O-])n1)Nc1cccc(Cl)c1Cl |  | inconclusive: 18.5 µM [inhibitor, single point]
71 | N#Cc1c(N2CCN(C(=O)c3ccccc3)CC2)nc(-c2ccccc2)c2c1CCCC2 |  | active: 13.1 µM

Pulled by structure from the entries so far (three):
Row | SMILES | activity change, negative = inhibition | Potency
6 | COC(=O)c1nc2n(n1)C(c1ccc(OC)c(OC)c1OC)C1=C(CCCC1=O)N2 (stereo unspecified) | inactive: 8.03% | 
38 | Oc1ccc(-c2cn3c(n2)SCC3)cc1O |  | inconclusive: 18.5 µM [inhibitor, single point]
11 | O=C(NCC(=O)N1CCN(c2ccccc2O)CC1)c1ccc2c(c1)OCO2 | inactive: 93.7% | 
